Each structure is given as a SMILES string. “And” between values parts separate entries of the source, which are not always exact repeats. Equal values may be shown once. Some of the results follow. Each value is one well over the wells without odorant, computed here; the data are noisy.

Test systems include OR4M2 clone 1278; OR4N2 clone 1270; OR4N4 clone 1277; OR4N5 clone 1262; OR4P4 R231C clone 1398; OR4P4 clone 1139; OR4Q3 clone 1411; OR4S1 clone 1283; OR4S2 clone 1175; OR4X2 clone 1193.
Common to all, as to assay: odorant receptor activation (CRE luciferase / Renilla) (fold of no-odor wells); higher = more activation
Holding throughout (settings): 100 µM

In the case of `CCOc1cc(C=O)ccc1O` [ethyl vanillin], the odorant receptor activation with OR4M2 clone 1278 was 1.27 and 1.13; with OR4N2 clone 1270 it was 1.32 and 1.17; with OR4N4 clone 1277, 1.77 and 1.02; in the experiment with OR4N5 clone 1262, 3.05 and 1.54; in the experiment with OR4P4 R231C clone 1398 it was 0.802 and 1.12; in the experiment on OR4P4 clone 1139 it was 1.45 and 1.17. Moreover, the odorant receptor activation with OR4Q3 clone 1411 was 1.37 and 1.47; in the experiment on OR4S1 clone 1283, 1.01 and 0.949; in the experiment on OR4S2 clone 1175, 2.39 and 0.922; with OR4X2 clone 1193 it was 1.74 and 1.13.
In the case of `CCC(C)=O` [2-butanone], the odorant receptor activation in the experiment on OR4M2 clone 1278 amounted to 1.5; in the experiment with OR4N2 clone 1270 it was 1.05; in the experiment with OR4N4 clone 1277 it was 1.23; with OR4N5 clone 1262, 0.824; in the experiment with OR4P4 R231C clone 1398, 0.979; in the experiment with OR4P4 clone 1139 it was 0.723. Also, the odorant receptor activation with OR4Q3 clone 1411 is 0.696; with OR4S1 clone 1283 it was 0.992; in the experiment on OR4S2 clone 1175 it was 0.912; with OR4X2 clone 1193, 1.07.
Consider `CS` [methanethiol], for which the odorant receptor activation is 0.827 in the experiment on OR4M2 clone 1278; 0.795 in the experiment with OR4N2 clone 1270; 0.805 with OR4N4 clone 1277; 0.836 with OR4N5 clone 1262; 0.841 with OR4P4 R231C clone 1398; 1.03 with OR4P4 clone 1139. In addition, the odorant receptor activation in the experiment on OR4Q3 clone 1411 came out at 1.03; in the experiment on OR4S1 clone 1283 it was 0.78; in the experiment with OR4S2 clone 1175 it was 0.97; in the experiment with OR4X2 clone 1193, 1.26.
Take `CCCCOC(C)=O` [butyl acetate]: the odorant receptor activation amounted to 0.775 with OR4M2 clone 1278; 0.818 in the experiment with OR4N2 clone 1270; 0.723 in the experiment on OR4N4 clone 1277; 0.8 with OR4N5 clone 1262; 0.213 in the experiment with OR4P4 R231C clone 1398; 1.17 with OR4P4 clone 1139. Moreover, the odorant receptor activation turned out to be 0.302 in the experiment on OR4Q3 clone 1411, 0.665 in the experiment on OR4S1 clone 1283, 1.28 with OR4S2 clone 1175 and 1.09 in the experiment on OR4X2 clone 1193.

Values taken from the odorant receptor screen of Mainland et al. (2015).
